# Laboratory results: PubChem BioAssay AID2685 (National Center for Advancing Translational Sciences (NCATS), 2010)
# The other results are listed elsewhere or left out. These are further read-outs of the screen, such as a control signal, another cell line or another target. No call is given for them. The list favours compounds with an active or inconclusive main result. Potencies come from curve fits of mixed quality, noted in brackets.
# Assay: qHTS Assay for Lipid Storage Modulators in Drosophila S3 Cells;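 for cell number change: cells counted by Cell Tracker Red CMTPX staining in the red channel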
# Settings: BODIPY lipid droplet fluorescence, 18-24 h; for cell number change: measured here: cell count max response, cells fed with added oleic acid
# Summary of the method: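 Drosophila S3 cells loaded with oleic acid (400 uM, as added) and compounds at several concentrations; lipid droplets imaged by 488-nm laser-scanning cytometry, 500–530 nm intensity and object ratio to cell channel. Percent activity normalized to 20 uM Triacsin C.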
# [1] = measured here: cell number channel AC50, cells fed with added oleic acid
# [2] = measured here: lipid fluorescence (Fed channel) AC50, cells fed with added oleic acid
Compound,cell number change [%],AC50 [1],AC50 [2]
COc1ccc([N+](=O)[O-])cc1NC(=O)c1ccco1,13.7,"1.64 µM [rising, full curve, poor fit]",–
CN(Cc1cccc(Cl)c1)C(=O)C1CCN(C(=O)Nc2ccccc2)CC1,–,"6.51 µM [falling, single point]","8.2 µM [falling, partial curve, poor fit]"
O=S(=O)(/N=C(/c1ccccc1)N1CCOCC1)c1ccc(Br)cc1,6.74,–,"6.51 µM [falling, single point]"
CC(C)(C)NC(=O)NC(=O)COC(=O)Cc1coc2ccc3ccccc3c12,-14.1,–,"32.6 µM [falling, single point]"
CC12COC3(P(=O)(c4ccccc4)c4ccccc4)CC1CCC23CP(=O)(c1ccccc1)c1ccccc1 (centres undefined),12.6,–,"29.1 µM [falling, single point]"
CC(=O)c1cccc(NC(=O)C(OC(=O)c2cccs2)c2ccccc2)c1 (centres undefined),-13,–,"0.13 µM [falling, full curve, poor fit]"
Cc1cc2nc(/C=C/c3cccnc3)[nH]c2cc1C,8.07,–,"29.1 µM [rising, single point]"
O=C(c1cc(COc2ccc3ncccc3c2)on1)N1CCCCCC1,-42.5,"23.1 µM [falling, single point]","10.3 µM [falling, partial curve]"
O=C(c1ccc2ccccc2n1)N1CCN(c2ccccn2)CC1,21.7,–,–
O=S(=O)(NCc1ccccc1)c1ccc(S(=O)(=O)N(Cc2ccccn2)C2CCCC2)cc1,-25.3,–,"29.1 µM [falling, single point]"
CC(=O)c1cccc(NC(=O)/C(=C\c2cccnc2)NC(=O)c2ccc(C)cc2)c1,1.74,–,"29.1 µM [rising, single point]"
CCCC(=O)c1ccc(N2CCN(C(=O)OCC)CC2)c(F)c1,-11.1,"0.00461 µM [falling, full curve, poor fit]",–
O=C(CNC(=O)c1cccc(Br)c1)N/N=C/c1cccnc1,12.8,–,–
COc1ccc(NC(=O)C(Br)C(C)C)cc1 (centres undefined),-37.6,"25.9 µM [falling, single point]",–
CCOc1ccc(C(F)(F)F)cc1NC(=O)COc1ccc(C(F)(F)F)cc1[N+](=O)[O-],–,"0.231 µM [rising, full curve]","0.116 µM [rising, full curve, poor fit]"
O=C(CSCc1ccc(Cl)cc1)N/N=C/c1ccccc1,-50.5,"29.1 µM [falling, single point]",–
c1cncc(CNc2c3c(nc4nnnn24)CCCC3)c1,-3.35,–,"2.59 µM [rising, single point]"
CC(C)CC(COCc1ccc(C(F)(F)F)cc1)N1CCN(C(=O)c2ccc(C(F)(F)F)cc2)CCC1=O (centres undefined),32.3,"7.31 µM [rising, partial curve]",–
Cc1c(NS(=O)(=O)c2ccc(C(=O)NCc3ccccc3)cc2)c(=O)n(-c2ccccc2)n1C,41.7,"2.31 µM [rising, full curve]","6.51 µM [rising, single point]"

Compound,cell number change [%],AC50 [1],AC50 [2]
Cc1ccc(C)c(S(=O)(=O)N2CCCC2CNC(=O)C(=O)NCc2cccs2)c1 (centres undefined),53.5,"10.3 µM [rising, partial curve, poor fit]",–
Cc1ccnc2nc(C(=O)OC(C)C(=O)NCc3ccccc3)nn12 (centres undefined),36.4,"0.259 µM [rising, partial curve]","2.06 µM [rising, partial curve, poor fit]"
Cc1cccc(N2CCN(C(=O)C3CCN(S(=O)(=O)c4cccc5cccnc45)CC3)CC2C)c1 (centres undefined),–,–,"0.13 µM [falling, full curve, poor fit]"
Cc1cc(N2C(=O)C(=O)/C(=C(/O)c3ccc(F)cc3)C2c2ccc(Cl)cc2)no1 (centres undefined),61.1,"6.51 µM [falling, single point]","6.51 µM [falling, single point]"
O=C(N/N=C/C=C\c1ccccc1[N+](=O)[O-])c1ccco1,39.8,"1.84 µM [rising, full curve]",–
CCOc1cc(S(=O)(=O)NCc2ccc(OC)cc2)c(OCC)cc1-n1cnnn1,-18.2,–,"18.4 µM [falling, partial curve]"
COCC1CCN(Cc2nc(Cc3ccccc3Cl)no2)CC1,10.4,–,"4.61 µM [rising, partial curve]"
C/C(CC(=O)Nc1ccc2c(c1)OCCO2)=N\NC(=O)Cc1ccccc1,6.41,–,–
CCN1CCN(Cc2ccc(NC(=O)c3ccc(C)c(NC(=O)c4cccc(-c5cn[nH]c(=O)c5)c4)c3)cc2C(F)(F)F)CC1,-5.83,–,–
Cc1ccc(NC(=O)N2CCC(C(=O)NCCC3=CCCCC3)CC2)cc1,-58.5,"2.59 µM [falling, full curve]","2.31 µM [falling, full curve]"
CCOC(=O)c1ccc(N2C(=O)C(O)=C(C(C)=O)C2c2ccc(O)c(OC)c2)cc1 (centres undefined),16.7,–,"8.2 µM [falling, partial curve, poor fit]"
CC(C)CC(=O)Nc1cccc(-c2csc(-c3ccccc3)n2)c1,-54.3,"20.6 µM [falling, single point]",–
CC(C)[C@H](NC(=O)C1CCN(S(=O)(=O)c2ccccc2)CC1)C(=O)NCc1ccccc1,82.7,"29.1 µM [rising, single point]",–
COc1ccc(OC)c(NC(=O)c2nc(-c3ccccc3)oc2C)c1,-5,–,"0.103 µM [falling, full curve, poor fit]"
COC(=O)C1=C(N)OC2=C(C(=O)CCC2)C1c1ccccc1OC (centres undefined),3.95,"0.00517 µM [rising, full curve, poor fit]","2.06 µM [falling, single point]"
Clc1ccc(-c2csc(N3CCOCC3)n2)cc1,5.74,"6.51 µM [rising, single point]","6.51 µM [rising, single point]"
O=C1CC(c2ccco2)CC(O)=C1C=NCCO (centres undefined),16.6,–,"4.11 µM [falling, partial curve]"
C=CCSc1nc(O)c(C2OC(=O)c3c2ccc(OC)c3OC)c(=O)n1-c1ccccc1 (centres undefined),17.9,–,"29.1 µM [rising, single point]"
CCOc1ccc(-c2nc(CS(=O)(=O)CC(=O)NCc3ccc(F)cc3)c(C)o2)cc1,40.6,"18.4 µM [rising, partial curve]","3.26 µM [rising, partial curve, poor fit]"

# Grouped by structure, the compounds so far containing a CF3 group
Compound,cell number change [%],AC50 [1],AC50 [2]
CCOc1ccc(C(F)(F)F)cc1NC(=O)COc1ccc(C(F)(F)F)cc1[N+](=O)[O-],–,"0.231 µM [rising, full curve]","0.116 µM [rising, full curve, poor fit]"
CC(C)CC(COCc1ccc(C(F)(F)F)cc1)N1CCN(C(=O)c2ccc(C(F)(F)F)cc2)CCC1=O (centres undefined),32.3,"7.31 µM [rising, partial curve]",–
CCN1CCN(Cc2ccc(NC(=O)c3ccc(C)c(NC(=O)c4cccc(-c5cn[nH]c(=O)c5)c4)c3)cc2C(F)(F)F)CC1,-5.83,–,–

# (next part)

Compound,cell number change [%],AC50 [1],AC50 [2]
CC(C)Cn1c(SCC(=O)N2CCc3ccccc3C2)nc2cc(Cl)ccc2c1=O,37.3,"2.91 µM [rising, full curve]","10.3 µM [rising, partial curve]"
COc1ccccc1/C=C/CN1CCNC(=O)C1CC(=O)NCCc1cnccn1 (centres undefined),3.83,–,"1.64 µM [falling, partial curve]"
COCc1cc(C(C)=O)ccc1OCC(=O)Nc1ccc(NC(C)=O)cc1,1.71,–,–
CC1CCN(c2nc(-c3ccccc3)c(C#N)c(=O)[nH]2)CC1,2.36,–,"29.1 µM [rising, single point]"
COc1ccc(NC(=O)c2ccc(OC)cc2)cc1,5.89,–,–
CNc1nc2[nH]c(=O)c3c(c2s1)OC(N)=C(C#N)C3c1ccccc1 (centres undefined),–,–,"0.116 µM [falling, full curve, poor fit]"
CCCCCn1c(=O)[nH]c2cc(C(=O)NCCCN(C)Cc3ccccc3)ccc2c1=O,6.11,"0.103 µM [rising, full curve, poor fit]","0.259 µM [rising, partial curve, poor fit]"
COc1ccc(CNC2CCCCC2)cc1,9.33,–,–
O=c1n(Cc2ccccc2F)c2ccccc2n1Cc1ccccc1F,18.9,–,"6.51 µM [rising, single point]"
Cc1ccc(S(=O)(=O)N2CCC(=O)N(CCOC(=O)Nc3ccc(C)c(C)c3)CC2)cc1,8.92,–,"5.8 µM [rising, partial curve, poor fit]"
CCOC(=O)/C=C/[C@H]1CC2(CCO1)SCCCS2,-24,–,"5.8 µM [rising, partial curve, poor fit]"
Cc1cccc(N2CCN(S(=O)(=O)c3cccc4nonc34)CC2C)c1 (centres undefined),35,"11.6 µM [rising, partial curve]","8.2 µM [rising, partial curve]"
CC(=O)N1CCc2cc(C(=O)CN3CCN(C(=O)c4ccco4)CC3)ccc21,3.07,–,"0.146 µM [falling, full curve, poor fit]"
C/C(=N\NC(=O)c1ccc(O)cc1O)c1cccnc1,–,"1.64 µM [falling, partial curve]","29.1 µM [rising, single point]"
CCOC(=O)C1CCN(C(=O)c2ccc(Cl)c(NC3=NC4CS(=O)(=O)CC4S3)c2)CC1 (centres undefined),-0.372,–,"32.6 µM [falling, single point]"
O=C(Nc1ccc(S(=O)(=O)NC2CCCCC2)cc1)c1ccc(Br)o1,-33.6,"29.1 µM [falling, single point]",–
Fc1ccccc1CN1CCCCCCC1,-46.9,"8.2 µM [falling, partial curve]","9.2 µM [falling, partial curve]"
Cc1cccc(NC(=O)c2ccc3c(c2)OCCO3)c1,0.952,–,–
